Results taken from the supplement of paper PMC8256030.
Several values for one entry are separate records, joined by “and”; a condition that tells them apart may be missing. Equal values may be shown once. The list shows a part of the results. This data set is noisy: repeats of one test often differ as much as different tests do.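 HEK293T cells were given each compound shortly before transfection with a reporter in which red mCherry is followed by the SARS-CoV-2 frameshift element and then GFP in the −1 frame, so GFP appears only after frameshifting.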

system: SARS-CoV-2 -1 PRF reporter mCherry-FSE-GFP(-1); test: mCherry (red) intensity as percent of control; higher = higher upstream reporter expression; settings: 10 µM; 24 h; HEK293T

Row | Compound | mCherry
1 | O=C1/C(=C/c2cccs2)CCC/C1=C\c1cccs1 [tenylidone] | 107%
2 | COc1cc2c3cc1Oc1cc(ccc1O)C[C@@H]1c4c(cc(OC)c(O)c4Oc4ccc(cc4)C[C@@H]3N(C)CC2)CC[N+]1(C)C [(+)-Tubocuraraine chloride] | 107%
3 | C=COCC(F)(F)F [fluroxene] | 105%
4 | CN1CCN(CCCN2c3ccccc3Sc3ccc(Cl)cc32)CC1 | 111%
5 | OC(C1=NCCN1)(c1ccc(Cl)cc1)c1ccccn1 (stereo unspecified) [dazadrol] | 71.5%
6 | CN1CCC[C@@H]1Cc1c[nH]c2ccc(CCS(=O)(=O)c3ccccc3)cc12 [eletriptan] | 66.7%
7 | CCC1(CC)COC(=O)NC1=O [diethadione] | 113%
8 | CC(C)[C@@H]1NC(=O)[C@H](CCCCN)NC(=O)[C@@H](Cc2c[nH]c3ccccc23)NC(=O)[C@H](Cc2ccc(O)cc2)NC(=O)[C@H](C)N(C)C(=O)[C@H](Cc2ccccc2)NC1=O [seglitide] | 95.6%
9 | CC[N+]1(CC)CCC(=C(c2ccccc2)c2ccccc2)C1C (stereo unspecified) [prifinium bromide] | 92.4%
10 | CO[C@H]1C[C@H](O[C@H]2[C@H](C)O[C@@H](O[C@@H]3/C(C)=C/C[C@@H]4C[C@@H](C[C@]5(C=C[C@H](C)[C@@H](C6CCCCC6)O5)O4)OC(=O)[C@@H]4C=C(C)[C@@H](O)[C@H]5OC/C(=C\C=C\[C@@H]3C)[C@]54O)C[C@@H]2OC)O[C@@H](C)[C@@H]1O | 100%
11 | CCCCC1C(=O)N(c2ccccc2)N(c2ccccc2)C1=O [phenylbutazone] | 80.5% and 89.6%

Filtered by structure, the compounds so far with nitrogen in an aromatic ring
Row | Compound | mCherry
5 | OC(C1=NCCN1)(c1ccc(Cl)cc1)c1ccccn1 (stereo unspecified) [dazadrol] | 71.5%
6 | CN1CCC[C@@H]1Cc1c[nH]c2ccc(CCS(=O)(=O)c3ccccc3)cc12 [eletriptan] | 66.7%
8 | CC(C)[C@@H]1NC(=O)[C@H](CCCCN)NC(=O)[C@@H](Cc2c[nH]c3ccccc23)NC(=O)[C@H](Cc2ccc(O)cc2)NC(=O)[C@H](C)N(C)C(=O)[C@H](Cc2ccccc2)NC1=O [seglitide] | 95.6%
